Source: the supplement of paper PMC10849652
The other results are listed elsewhere or left out.

By UniProt entry, the sequences of proteins in these tests, tags left out. Where a name states a change or a piece, a line headed by the entry shows the natural chain unless it says otherwise.
UniProt P04035: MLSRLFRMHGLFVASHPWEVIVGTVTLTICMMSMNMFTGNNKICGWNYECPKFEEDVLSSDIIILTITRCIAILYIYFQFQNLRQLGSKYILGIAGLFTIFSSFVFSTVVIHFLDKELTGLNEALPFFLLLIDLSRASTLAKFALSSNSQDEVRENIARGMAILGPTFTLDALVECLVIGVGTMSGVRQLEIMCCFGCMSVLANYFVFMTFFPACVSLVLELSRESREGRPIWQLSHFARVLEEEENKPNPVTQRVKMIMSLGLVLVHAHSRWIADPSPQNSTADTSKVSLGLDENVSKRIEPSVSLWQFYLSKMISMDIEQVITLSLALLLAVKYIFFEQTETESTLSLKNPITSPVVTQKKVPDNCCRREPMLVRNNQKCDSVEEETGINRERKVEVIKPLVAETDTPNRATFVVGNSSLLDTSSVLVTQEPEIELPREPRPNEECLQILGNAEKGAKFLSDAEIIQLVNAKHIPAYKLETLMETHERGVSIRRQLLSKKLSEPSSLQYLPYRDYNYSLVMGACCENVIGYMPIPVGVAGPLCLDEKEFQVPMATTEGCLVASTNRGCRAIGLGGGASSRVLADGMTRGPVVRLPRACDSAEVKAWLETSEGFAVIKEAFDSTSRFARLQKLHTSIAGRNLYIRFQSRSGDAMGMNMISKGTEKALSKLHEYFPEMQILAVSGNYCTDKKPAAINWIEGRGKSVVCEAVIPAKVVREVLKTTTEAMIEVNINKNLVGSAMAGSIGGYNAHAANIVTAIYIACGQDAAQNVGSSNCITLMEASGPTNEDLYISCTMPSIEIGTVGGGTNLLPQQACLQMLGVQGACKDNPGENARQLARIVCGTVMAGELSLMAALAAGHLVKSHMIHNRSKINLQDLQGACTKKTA
UniProt Q9BX68: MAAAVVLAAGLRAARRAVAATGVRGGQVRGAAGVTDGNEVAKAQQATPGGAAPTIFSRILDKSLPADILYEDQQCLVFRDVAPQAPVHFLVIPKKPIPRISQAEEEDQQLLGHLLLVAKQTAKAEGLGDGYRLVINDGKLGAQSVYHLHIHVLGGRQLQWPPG
UniProt P05114: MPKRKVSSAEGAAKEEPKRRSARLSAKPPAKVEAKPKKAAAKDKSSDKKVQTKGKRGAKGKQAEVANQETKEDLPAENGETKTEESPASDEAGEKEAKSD
UniProt P23327: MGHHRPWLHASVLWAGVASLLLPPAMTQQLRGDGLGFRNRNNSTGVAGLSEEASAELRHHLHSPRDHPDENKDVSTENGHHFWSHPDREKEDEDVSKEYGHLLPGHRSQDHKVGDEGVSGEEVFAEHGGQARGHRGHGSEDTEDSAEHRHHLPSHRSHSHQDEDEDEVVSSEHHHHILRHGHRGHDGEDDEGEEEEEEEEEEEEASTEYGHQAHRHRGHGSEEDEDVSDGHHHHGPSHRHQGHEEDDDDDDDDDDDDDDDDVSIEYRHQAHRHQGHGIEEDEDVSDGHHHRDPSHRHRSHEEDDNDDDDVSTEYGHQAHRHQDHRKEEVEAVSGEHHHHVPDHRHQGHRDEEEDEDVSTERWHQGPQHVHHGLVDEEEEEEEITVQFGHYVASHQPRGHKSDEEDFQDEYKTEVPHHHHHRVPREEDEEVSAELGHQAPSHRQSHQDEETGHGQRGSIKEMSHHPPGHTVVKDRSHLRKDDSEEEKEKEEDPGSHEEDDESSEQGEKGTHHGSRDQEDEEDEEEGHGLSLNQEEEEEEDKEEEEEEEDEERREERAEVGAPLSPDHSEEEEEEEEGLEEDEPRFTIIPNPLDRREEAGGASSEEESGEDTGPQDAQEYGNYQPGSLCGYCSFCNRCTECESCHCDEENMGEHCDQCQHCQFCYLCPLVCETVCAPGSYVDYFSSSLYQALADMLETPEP
UniProt P07910: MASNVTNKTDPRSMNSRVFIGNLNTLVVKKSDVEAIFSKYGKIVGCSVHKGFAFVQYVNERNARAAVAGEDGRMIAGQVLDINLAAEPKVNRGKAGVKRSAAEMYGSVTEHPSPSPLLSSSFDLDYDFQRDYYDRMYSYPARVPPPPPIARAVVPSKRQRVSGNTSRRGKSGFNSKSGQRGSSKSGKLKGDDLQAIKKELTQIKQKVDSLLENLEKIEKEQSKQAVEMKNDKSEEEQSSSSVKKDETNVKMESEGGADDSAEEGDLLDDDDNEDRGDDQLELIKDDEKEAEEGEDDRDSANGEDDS
UniProt P11142, whole entry, looked up: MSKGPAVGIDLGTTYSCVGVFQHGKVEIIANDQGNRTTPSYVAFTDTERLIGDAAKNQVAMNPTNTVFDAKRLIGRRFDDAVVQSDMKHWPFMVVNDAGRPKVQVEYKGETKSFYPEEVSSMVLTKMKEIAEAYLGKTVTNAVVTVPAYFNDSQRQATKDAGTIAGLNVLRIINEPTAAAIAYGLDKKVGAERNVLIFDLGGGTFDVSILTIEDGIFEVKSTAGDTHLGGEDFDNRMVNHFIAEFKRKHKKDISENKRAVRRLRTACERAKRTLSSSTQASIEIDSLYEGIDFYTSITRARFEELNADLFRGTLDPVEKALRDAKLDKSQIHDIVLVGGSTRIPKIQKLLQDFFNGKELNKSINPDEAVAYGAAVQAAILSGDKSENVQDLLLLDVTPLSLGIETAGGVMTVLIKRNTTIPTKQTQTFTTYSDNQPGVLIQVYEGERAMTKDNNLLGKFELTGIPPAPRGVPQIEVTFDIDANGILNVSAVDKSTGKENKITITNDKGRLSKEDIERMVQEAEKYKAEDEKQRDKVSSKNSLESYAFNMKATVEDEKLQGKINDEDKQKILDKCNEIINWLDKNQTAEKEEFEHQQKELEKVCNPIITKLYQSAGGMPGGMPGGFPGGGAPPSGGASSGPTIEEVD
UniProt Q96JB3: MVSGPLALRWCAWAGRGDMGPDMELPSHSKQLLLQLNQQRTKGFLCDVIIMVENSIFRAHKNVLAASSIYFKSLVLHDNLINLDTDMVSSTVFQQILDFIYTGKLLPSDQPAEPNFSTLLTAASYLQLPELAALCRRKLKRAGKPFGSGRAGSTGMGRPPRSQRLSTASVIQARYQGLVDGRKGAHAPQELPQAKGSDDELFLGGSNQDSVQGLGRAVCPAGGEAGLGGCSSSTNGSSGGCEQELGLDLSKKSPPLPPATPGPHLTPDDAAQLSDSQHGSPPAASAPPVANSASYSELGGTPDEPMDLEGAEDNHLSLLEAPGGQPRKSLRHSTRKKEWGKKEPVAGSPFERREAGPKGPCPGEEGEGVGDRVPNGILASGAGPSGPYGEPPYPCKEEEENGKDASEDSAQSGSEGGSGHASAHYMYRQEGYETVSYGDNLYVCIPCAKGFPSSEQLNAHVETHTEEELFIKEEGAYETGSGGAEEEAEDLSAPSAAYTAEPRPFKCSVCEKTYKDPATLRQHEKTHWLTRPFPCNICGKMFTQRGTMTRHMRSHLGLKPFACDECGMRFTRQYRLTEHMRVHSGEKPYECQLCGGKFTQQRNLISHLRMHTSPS
UniProt Q92902: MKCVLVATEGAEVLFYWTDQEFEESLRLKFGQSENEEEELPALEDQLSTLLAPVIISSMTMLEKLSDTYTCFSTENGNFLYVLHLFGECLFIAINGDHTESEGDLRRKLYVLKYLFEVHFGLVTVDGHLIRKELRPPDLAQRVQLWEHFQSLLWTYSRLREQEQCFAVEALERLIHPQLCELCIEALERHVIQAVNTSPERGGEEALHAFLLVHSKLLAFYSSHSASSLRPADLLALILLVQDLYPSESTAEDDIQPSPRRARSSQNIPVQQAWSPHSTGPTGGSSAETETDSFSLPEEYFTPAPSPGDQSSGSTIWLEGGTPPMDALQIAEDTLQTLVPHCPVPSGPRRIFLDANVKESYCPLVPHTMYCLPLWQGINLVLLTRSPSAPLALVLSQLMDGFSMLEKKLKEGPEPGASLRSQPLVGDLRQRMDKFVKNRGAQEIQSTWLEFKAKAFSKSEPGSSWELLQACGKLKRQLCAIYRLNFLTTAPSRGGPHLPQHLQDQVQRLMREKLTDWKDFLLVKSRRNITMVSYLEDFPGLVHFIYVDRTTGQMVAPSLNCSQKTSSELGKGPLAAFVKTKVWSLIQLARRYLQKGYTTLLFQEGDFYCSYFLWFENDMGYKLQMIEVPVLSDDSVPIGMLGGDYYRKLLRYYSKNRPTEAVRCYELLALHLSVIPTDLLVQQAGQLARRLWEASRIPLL
UniProt Q53GQ0: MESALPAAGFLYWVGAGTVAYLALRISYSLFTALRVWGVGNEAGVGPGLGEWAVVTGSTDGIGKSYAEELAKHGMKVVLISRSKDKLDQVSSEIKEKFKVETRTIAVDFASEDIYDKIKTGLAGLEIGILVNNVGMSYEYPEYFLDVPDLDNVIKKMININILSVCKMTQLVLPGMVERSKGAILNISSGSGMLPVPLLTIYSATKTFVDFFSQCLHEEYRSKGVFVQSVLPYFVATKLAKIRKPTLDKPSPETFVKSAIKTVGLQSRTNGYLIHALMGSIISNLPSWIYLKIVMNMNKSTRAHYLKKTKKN
UniProt Q9UJC3, whole entry, looked up: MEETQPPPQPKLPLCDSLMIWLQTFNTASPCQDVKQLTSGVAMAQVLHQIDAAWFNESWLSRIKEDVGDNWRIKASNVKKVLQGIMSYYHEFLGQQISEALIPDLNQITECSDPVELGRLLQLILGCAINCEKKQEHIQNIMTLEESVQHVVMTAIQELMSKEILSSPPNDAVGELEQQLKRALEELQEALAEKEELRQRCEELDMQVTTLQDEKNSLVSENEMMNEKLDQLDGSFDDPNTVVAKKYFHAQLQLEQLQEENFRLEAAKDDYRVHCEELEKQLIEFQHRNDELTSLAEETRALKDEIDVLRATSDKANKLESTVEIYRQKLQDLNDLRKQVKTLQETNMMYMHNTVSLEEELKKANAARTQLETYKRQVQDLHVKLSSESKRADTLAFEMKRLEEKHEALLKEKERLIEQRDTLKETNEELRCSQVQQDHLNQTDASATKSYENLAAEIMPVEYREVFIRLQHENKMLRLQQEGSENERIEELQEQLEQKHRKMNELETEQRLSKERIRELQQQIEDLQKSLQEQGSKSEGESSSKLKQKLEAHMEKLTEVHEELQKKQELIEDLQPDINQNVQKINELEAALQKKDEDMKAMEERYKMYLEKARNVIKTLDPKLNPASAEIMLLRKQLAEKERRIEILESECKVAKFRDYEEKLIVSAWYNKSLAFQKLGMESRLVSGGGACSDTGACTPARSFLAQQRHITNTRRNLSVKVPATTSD
UniProt Q9P2D0: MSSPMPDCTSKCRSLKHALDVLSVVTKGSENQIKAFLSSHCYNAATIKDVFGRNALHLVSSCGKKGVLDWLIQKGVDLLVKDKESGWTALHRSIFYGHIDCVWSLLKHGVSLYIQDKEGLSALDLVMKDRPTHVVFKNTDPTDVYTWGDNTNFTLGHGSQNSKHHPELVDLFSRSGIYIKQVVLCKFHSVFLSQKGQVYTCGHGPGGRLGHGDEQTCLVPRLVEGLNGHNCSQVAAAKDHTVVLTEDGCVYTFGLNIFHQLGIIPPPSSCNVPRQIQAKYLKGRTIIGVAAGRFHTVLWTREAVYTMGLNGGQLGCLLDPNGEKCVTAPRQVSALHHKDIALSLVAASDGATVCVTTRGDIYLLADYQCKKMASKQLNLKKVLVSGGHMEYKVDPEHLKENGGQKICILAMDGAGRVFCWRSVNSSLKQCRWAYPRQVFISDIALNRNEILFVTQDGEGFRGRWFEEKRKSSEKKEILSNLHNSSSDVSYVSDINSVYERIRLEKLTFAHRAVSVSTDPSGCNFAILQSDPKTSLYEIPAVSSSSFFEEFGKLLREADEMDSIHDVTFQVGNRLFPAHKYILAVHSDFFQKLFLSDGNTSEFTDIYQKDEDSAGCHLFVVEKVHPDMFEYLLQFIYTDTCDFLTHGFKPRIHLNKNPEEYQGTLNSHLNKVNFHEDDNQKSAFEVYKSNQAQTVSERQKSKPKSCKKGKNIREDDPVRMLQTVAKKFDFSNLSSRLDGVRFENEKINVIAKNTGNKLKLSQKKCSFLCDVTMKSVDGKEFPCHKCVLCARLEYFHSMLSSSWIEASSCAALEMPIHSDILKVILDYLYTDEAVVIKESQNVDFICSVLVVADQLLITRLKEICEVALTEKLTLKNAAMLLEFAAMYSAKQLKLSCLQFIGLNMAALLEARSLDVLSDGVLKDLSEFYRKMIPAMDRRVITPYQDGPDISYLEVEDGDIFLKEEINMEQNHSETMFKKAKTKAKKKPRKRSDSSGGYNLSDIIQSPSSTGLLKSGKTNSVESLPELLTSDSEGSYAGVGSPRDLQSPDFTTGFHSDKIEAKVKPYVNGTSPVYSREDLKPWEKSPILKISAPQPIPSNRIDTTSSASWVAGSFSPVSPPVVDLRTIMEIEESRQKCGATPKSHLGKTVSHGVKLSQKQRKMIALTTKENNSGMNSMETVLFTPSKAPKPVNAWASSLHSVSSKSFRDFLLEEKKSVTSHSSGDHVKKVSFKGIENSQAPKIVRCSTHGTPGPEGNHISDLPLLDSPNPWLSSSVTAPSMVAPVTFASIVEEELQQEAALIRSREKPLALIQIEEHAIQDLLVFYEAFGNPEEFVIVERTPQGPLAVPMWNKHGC

Experiments:
Assay in all cases: log2 fold change, soluble protein after heating vs DMSO (PISA); higher = thermal stabilisation; K562 cells, 10 uM, 30 min; active = over 0.2 and 3.5 SD of the protein, either way, in both replicates (recomputed)
[1] = compound: CC[C@@H]1C(=O)N(C)c2cnc(Nc3ccc(C(=O)NC4CCN(C)CC4)cc3OC)nc2N1C1CCCC1
Outline: (§1)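 K562 cells at 2×10^6 cells/mL were given 10 μM compound for 30 min. Aliquots then went through 3 min of heating across 48°C-58°C, were pooled, and were extracted in PBS with 0.5% NP-40 at 4°C, and the supernatant after 21,000xg for 90 min was quantified by TMTpro 16plex LC-MS/MS with channel sums equalised. Thermal stability relative to control samples, from duplicates, is given as log2 fold change.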

volasertib = compound: CC[C@@H]1C(=O)N(C)c2cnc(Nc3ccc(C(=O)N[C@H]4CC[C@H](N5CCN(CC6CC6)CC5)CC4)cc3OC)nc2N1C(C)C [volasertib]
Outline: as §1

[2] = compound: CC[C@H](C)N1C=C(C2=C(C=C(C=C21)C3=CN=C(C=C3)N4CCNCC4)C(=O)NCC5=C(C=C(NC5=O)C)C)C
Outline: as §1

epoxomicin = compound: CC[C@H](C)[C@@H](C(=O)N[C@@H]([C@@H](C)O)C(=O)N[C@@H](CC(C)C)C(=O)[C@]1(CO1)C)NC(=O)[C@H]([C@@H](C)CC)N(C)C(=O)C [epoxomicin]
Outline: as §1

[3] = compound: CCn1cc(-c2ccnc3[nH]c(-c4cccc(CN(C)C)c4)cc23)c(-c2ccc(NC(=O)N(C)C)cc2)n1
Outline: as §1

[4] = compound: CN(C)CC(=O)Nc1ccc2[nH]c(=O)c3ccccc3c2c1
Outline: as §1

[5] = compound: CN1C2=C(C3=C1C(=O)N(N=C3)CC4=CC(=CC=C4)N)SC(=C2)S(=O)C
Outline: as §1

[6] = compound: CN1CCC(CNc2ccc3ncc(-c4cccc(OC(F)(F)F)c4)n3n2)CC1
Outline: as §1

[7] = compound: CCn1c(C(=O)N(C2CC2)C2CC2)cc2c3c(ncn3C)c(Nc3cc(C)n(C)n3)nc21
Outline: as §1

rosiglitazone = compound: CN(CCOC1=CC=C(C=C1)C[C@H]2C(=O)NC(=O)S2)C3=CC=CC=N3 (racemic) [rosiglitazone]
Outline: as §1

Target	log2 fold change [1]	log2 fold change (volasertib)	log2 fold change [2]	log2 fold change (epoxomicin)	log2 fold change [3]	log2 fold change [4]	log2 fold change [5]	log2 fold change [6]	log2 fold change [7]	log2 fold change (rosiglitazone)
HMGCR isoform 3 (UniProt P04035)	inactive: -0.007	inactive: -0.019	inactive: -0.07	active: 0.356	inactive: 0.015	inactive: -0.023	inactive: -0.009	inactive: 0.272		
HIP1R (UniProt O75146)	inactive: -0.035	active: -0.268	inactive: 0.015	inactive: 0.051	inactive: -0.016	inactive: -0.017	inactive: 0.026	inactive: -0.134		
HP1BP3 (UniProt Q5SSJ5)	inactive: 0.122	inactive: 0.054	inactive: -0.11	inactive: -0.016	inactive: 0.013	inactive: 0.046	inactive: 0.126	inactive: 0.038		
HSPA8 (UniProt E9PN89)	inactive: 0.167	inactive: 0.114	inactive: -0.205	inactive: -0.278	inactive: 0.178	inactive: -0.139		inactive: -0.154		
HRAS (UniProt P01112)	inactive: -0.014	inactive: 0.057	inactive: -0.028	inactive: 0.104	inactive: -0.082	inactive: -0.125	inactive: -0.033	inactive: 0.048		
HINT2 (UniProt Q9BX68)	inactive: 0.065	inactive: -0.001	inactive: -0.054		inactive: -0.076	inactive: 0.178	inactive: -0.089	inactive: 0.115	inactive: 0.015	inactive: -0.015
HMGN1 (UniProt P05114)	inactive: 0.054	inactive: 0.141	inactive: -0.044	inactive: -0.008	inactive: 0.045	inactive: -0.094	inactive: 0.039	inactive: 0.101		
HRC (UniProt P23327)	inactive: 0.01	inactive: 0.043	inactive: -0.014	inactive: -0.061	inactive: -0.023	inactive: 0.005	inactive: -0.107	inactive: -0.013		
HNRNPC isoform 2 (UniProt P07910)	inactive: 0.238	inactive: 0.276	inactive: 0.017	inactive: -0.423	inactive: 0.147	inactive: -0.151	inactive: 0.467	inactive: -0.067		
HSPA8 (UniProt P11142)	inactive: 0.001	inactive: 0.113	inactive: -0.007	inactive: 0.008	inactive: -0.002	inactive: -0.037	inactive: -0.034	inactive: 0.079		
HIC2 (UniProt Q96JB3)	inactive: 0.028	inactive: -0.19	inactive: 0.032	inactive: -0.134	inactive: 0.128	inactive: -0.035	inactive: 0.164	inactive: -0.006		
HNRNPUL1 (UniProt M0R247)	inactive: -0.072	inactive: 0.16	inactive: -0.101				inactive: 0.21			
HPS1 (UniProt Q92902)	inactive: 0.056	inactive: -0.128	inactive: 0.039			inactive: -0.011			inactive: -0.039	inactive: 0.085
HSD17B12 (UniProt Q53GQ0)	inactive: -0.046	inactive: -0.183	inactive: 0	inactive: -0.013	inactive: -0.104	inactive: 0.01	inactive: -0.039	inactive: 0.037		
HOOK1 (UniProt Q9UJC3)	inactive: 0.002	inactive: -0.299		inactive: -0.022		inactive: -0.071	inactive: 0.135			
HIST2H2AA3 (UniProt Q6FI13)	inactive: -0.102		inactive: 0.007	inactive: 0.153	inactive: 0.193	inactive: -0.338	inactive: 0.073	inactive: 0.073	inactive: 0.096	inactive: -0.23
IBTK (UniProt Q9P2D0)	inactive: 0.031	inactive: -0.116	inactive: 0.003	inactive: -0.327	inactive: 0.052		inactive: 0.306	inactive: -0.013		inactive: 0.005
HOOK2 (UniProt Q96ED9)	inactive: -0.003	inactive: -0.004		inactive: 0.076						

At a glance, part of the list above:
Target	log2 fold change [1]	log2 fold change (volasertib)	log2 fold change [2]	log2 fold change (epoxomicin)	log2 fold change [3]	log2 fold change [4]	log2 fold change [5]	log2 fold change [6]	log2 fold change [7]	log2 fold change (rosiglitazone)
HSPA8 (UniProt P11142)	inactive: 0.001	inactive: 0.113	inactive: -0.007	inactive: 0.008	inactive: -0.002	inactive: -0.037	inactive: -0.034	inactive: 0.079		
HIC2 (UniProt Q96JB3)	inactive: 0.028	inactive: -0.19	inactive: 0.032	inactive: -0.134	inactive: 0.128	inactive: -0.035	inactive: 0.164	inactive: -0.006		
